Measurements published in paper PMC10250230, “Negatively charged, intrinsically disordered regions can accelerate target search by DNA-binding proteins”.

By UniProt entry, the sequences of proteins in these tests, tags left out. Where a name states a change or a piece, a line headed by the entry shows the natural chain unless it says otherwise.
UniProt P02833: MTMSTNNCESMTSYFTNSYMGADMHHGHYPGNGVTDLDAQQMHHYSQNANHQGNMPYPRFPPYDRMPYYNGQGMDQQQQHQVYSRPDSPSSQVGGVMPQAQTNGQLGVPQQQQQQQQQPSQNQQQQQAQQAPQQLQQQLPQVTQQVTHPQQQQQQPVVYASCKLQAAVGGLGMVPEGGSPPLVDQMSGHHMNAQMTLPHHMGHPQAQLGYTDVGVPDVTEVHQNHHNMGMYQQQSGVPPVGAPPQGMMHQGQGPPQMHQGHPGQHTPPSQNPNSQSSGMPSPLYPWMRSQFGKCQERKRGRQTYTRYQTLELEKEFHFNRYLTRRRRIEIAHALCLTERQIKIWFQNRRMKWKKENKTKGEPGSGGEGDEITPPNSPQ

Tests used:
Experiment in all cases: stopped-flow fluorescence anisotropy
Antp HD-DERT11 = Antp HD-DERT11 (UniProt P02833); conditions: 4 uM 15-bp decoy DNA, association faster than Antp HD; Antp Kd: 20 mM potassium succinate pH 5.8, 0.4 mM NaF, 200 mM KCl; HMGB1: 10 mM K phosphate pH 7.5, 1 mM DTT, 1 mM MgCl2, 100 mM KCl, 25 C; recombinant protein; label: 5' FAM
Antp HD-DERT7 = Antp HD-DERT7 (UniProt P02833); conditions: 4 uM 15-bp decoy DNA, association faster than Antp HD; Antp Kd: 20 mM potassium succinate pH 5.8, 0.4 mM NaF, 200 mM KCl; HMGB1: 10 mM K phosphate pH 7.5, 1 mM DTT, 1 mM MgCl2, 100 mM KCl, 25 C; recombinant protein; label: 5' FAM
[1] = target: Antp HD (control without DERT; Antp HD-MID) (UniProt P02833); conditions: 4 uM 15-bp decoy DNA; Antp Kd: 20 mM potassium succinate pH 5.8, 0.4 mM NaF, 200 mM KCl; HMGB1: 10 mM K phosphate pH 7.5, 1 mM DTT, 1 mM MgCl2, 100 mM KCl …; recombinant protein; label: 5' FAM
Antp HD-DERT16 = Antp HD-DERT16 (UniProt P02833); conditions: 4 uM 15-bp decoy DNA, association slower than Antp HD; Antp Kd: 20 mM potassium succinate pH 5.8, 0.4 mM NaF, 200 mM KCl; HMGB1: 10 mM K phosphate pH 7.5, 1 mM DTT, 1 mM MgCl2, 100 mM KCl, 25 C; recombinant protein; label: 5' FAM

Measured: binding result

AGCCATTACAGTGTACGCACGTACGGTGCACGA (double strand) [FAM-labeled 33-bp Antp target DNA]
binds: Antp HD-DERT11 | Antp HD-DERT7 | [1] | Antp HD-DERT16

Construct, isoform or probe ends are uncertain for at least one entry.
